Measurements reported in PubChem BioAssay AID1259300 (Sanger Institute, 2017).
The whole screen tested 794 reagents; shown is an unselected part. Of all reagents, 18 (2.3%) got an active call. 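Calls rest on knock-down alone, not drug synergy; depositor treated synergy scores above 0.15 as synergistic; drug doses alone had little viability effect.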 No viability above 1 is reported: the scale is capped. Not all columns of the deposit are shown. Not given: the amount of reagent, the time to read-out.

- Aim: 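siRNA screen of kinases and common colorectal cancer mutant genes, alone or with drugs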 (primary screen)
- System: HCT15 colorectal cancer cells
- Reagents: siRNA pool against human genes
- Treatment: anchor drug or DMSO vehicle added 24 h after seeding: BYL719 1 µM, cetuximab 5 µg/ml, trametinib 10 nM; drug doses chosen to barely affect viability alone
- Measurement: 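Cell viability after knock-down, as fraction of non-targeting pool wells averaged over replicates, plus robust z-score for knock-down alone; synergy score per drug (BYL719 1 µM, cetuximab 5 µg/ml, trametinib 10 nM)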
- Direction: viability z-score, siRNA alone: higher = more viable cells after knock-down; viability vs non-targeting, siRNA alone: higher = more viable cells
- Call rule: 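a knock-down without drug that drives the robust viability z-score under -3 is active, i.e. essential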
- Meaning of the calls: active = essential: knock-down alone lowers viability (z below -3); inactive = no strong viability loss with knock-down alone

WHR1: viability z-score, siRNA alone = 0.571; viability vs non-targeting, siRNA alone = 0.996; Call = inactive
CAMK2N1: viability z-score, siRNA alone = -0.437; viability vs non-targeting, siRNA alone = 0.923; Call = inactive
EFNA4: viability z-score, siRNA alone = 0.418; viability vs non-targeting, siRNA alone = 0.985; Call = inactive
CHKB: viability z-score, siRNA alone = -0.73; viability vs non-targeting, siRNA alone = 0.901; Call = inactive
AKT1: viability z-score, siRNA alone = -0.404; viability vs non-targeting, siRNA alone = 0.925; Call = inactive
RUNX1: viability z-score, siRNA alone = 0.232; viability vs non-targeting, siRNA alone = 0.971; Call = inactive
BRSK2: viability z-score, siRNA alone = 0.625; viability vs non-targeting, siRNA alone = 1; Call = inactive
PRPS2: viability z-score, siRNA alone = 0.625; viability vs non-targeting, siRNA alone = 1; Call = inactive
DCLK2: viability z-score, siRNA alone = -0.574; viability vs non-targeting, siRNA alone = 0.913; Call = inactive
PANK1: viability z-score, siRNA alone = 0.405; viability vs non-targeting, siRNA alone = 0.984; Call = inactive
CLK3: viability z-score, siRNA alone = 0.625; viability vs non-targeting, siRNA alone = 1; Call = inactive
EIF2AK1: viability z-score, siRNA alone = 0.625; viability vs non-targeting, siRNA alone = 1; Call = inactive
AK7: viability z-score, siRNA alone = -2.51; viability vs non-targeting, siRNA alone = 0.772; Call = inactive
PRKD2: viability z-score, siRNA alone = -0.725; viability vs non-targeting, siRNA alone = 0.902; Call = inactive
DYRK3: viability z-score, siRNA alone = 0.625; viability vs non-targeting, siRNA alone = 1; Call = inactive
ACVR1: viability z-score, siRNA alone = 0.625; viability vs non-targeting, siRNA alone = 1; Call = inactive
MAPKAPK5: viability z-score, siRNA alone = 0.625; viability vs non-targeting, siRNA alone = 1; Call = inactive
BCR: viability z-score, siRNA alone = 0.625; viability vs non-targeting, siRNA alone = 1; Call = inactive
IGF2R: viability z-score, siRNA alone = 0.625; viability vs non-targeting, siRNA alone = 1; Call = inactive
ATM: viability z-score, siRNA alone = -0.164; viability vs non-targeting, siRNA alone = 0.943; Call = inactive
ACVR1C: viability z-score, siRNA alone = -0.362; viability vs non-targeting, siRNA alone = 0.928; Call = inactive
FLT3: viability z-score, siRNA alone = 0.625; viability vs non-targeting, siRNA alone = 1; Call = inactive
BMPR1B: viability z-score, siRNA alone = 0.625; viability vs non-targeting, siRNA alone = 1; Call = inactive
TESK2: viability z-score, siRNA alone = 0.625; viability vs non-targeting, siRNA alone = 1; Call = inactive
PDK4: viability z-score, siRNA alone = 0.339; viability vs non-targeting, siRNA alone = 0.979; Call = inactive
COASY: viability z-score, siRNA alone = -1.87; viability vs non-targeting, siRNA alone = 0.818; Call = inactive
ALPK1: viability z-score, siRNA alone = -1.76; viability vs non-targeting, siRNA alone = 0.827; Call = inactive
CDK15: viability z-score, siRNA alone = 0.625; viability vs non-targeting, siRNA alone = 1; Call = inactive

Laid out differently: results already given.
{"gene":"EFNA4","viability z-score, siRNA alone":0.418,"viability vs non-targeting, siRNA alone":0.985,"Call":"inactive"}
{"gene":"CHKB","viability z-score, siRNA alone":-0.73,"viability vs non-targeting, siRNA alone":0.901,"Call":"inactive"}
